Measurements reported in publication PMC10247366.
Results are given in words; binding and its absence hold for the method and conditions named. For some of these results: In cells and extracts the contact can be indirect. Some entries that bind do so weakly or less than the wild type.

Amino acid sequences for entries named in this document (tags omitted). A change or cut given only in a name is not applied to a line headed by its entry. Chains listed by the source or under a name are the forms on record and can include a tag or linker.
UniProt Q9H6L5: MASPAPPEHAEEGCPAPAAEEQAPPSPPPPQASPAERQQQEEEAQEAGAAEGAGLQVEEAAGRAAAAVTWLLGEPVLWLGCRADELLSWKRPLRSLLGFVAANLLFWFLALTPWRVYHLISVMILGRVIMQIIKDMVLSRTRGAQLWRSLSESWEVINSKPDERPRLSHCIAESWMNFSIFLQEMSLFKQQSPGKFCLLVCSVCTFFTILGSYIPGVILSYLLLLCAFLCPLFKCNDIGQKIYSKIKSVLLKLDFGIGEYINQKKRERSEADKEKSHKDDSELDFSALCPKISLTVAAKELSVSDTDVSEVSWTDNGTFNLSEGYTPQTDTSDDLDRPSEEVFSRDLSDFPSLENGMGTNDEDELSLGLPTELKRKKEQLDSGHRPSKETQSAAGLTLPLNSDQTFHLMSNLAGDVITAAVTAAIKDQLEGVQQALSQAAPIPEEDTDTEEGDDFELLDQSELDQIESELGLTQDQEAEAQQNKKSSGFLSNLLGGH
FAM134B 8KR (Flag FAM134B-IP) (Q9H6L5, form named): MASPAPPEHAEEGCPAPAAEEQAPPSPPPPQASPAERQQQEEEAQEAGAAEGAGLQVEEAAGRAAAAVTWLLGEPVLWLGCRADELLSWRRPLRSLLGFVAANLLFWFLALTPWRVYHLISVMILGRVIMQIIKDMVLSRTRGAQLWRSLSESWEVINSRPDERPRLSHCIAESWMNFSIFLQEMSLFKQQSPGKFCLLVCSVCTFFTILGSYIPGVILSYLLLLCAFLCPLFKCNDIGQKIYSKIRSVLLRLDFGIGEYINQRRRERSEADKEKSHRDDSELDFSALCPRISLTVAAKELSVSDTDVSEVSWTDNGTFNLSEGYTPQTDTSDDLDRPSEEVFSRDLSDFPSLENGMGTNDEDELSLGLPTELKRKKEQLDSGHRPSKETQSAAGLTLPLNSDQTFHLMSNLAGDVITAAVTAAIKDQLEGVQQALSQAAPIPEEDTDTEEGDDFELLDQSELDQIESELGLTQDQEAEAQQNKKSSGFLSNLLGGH
UniProt Q86VR2: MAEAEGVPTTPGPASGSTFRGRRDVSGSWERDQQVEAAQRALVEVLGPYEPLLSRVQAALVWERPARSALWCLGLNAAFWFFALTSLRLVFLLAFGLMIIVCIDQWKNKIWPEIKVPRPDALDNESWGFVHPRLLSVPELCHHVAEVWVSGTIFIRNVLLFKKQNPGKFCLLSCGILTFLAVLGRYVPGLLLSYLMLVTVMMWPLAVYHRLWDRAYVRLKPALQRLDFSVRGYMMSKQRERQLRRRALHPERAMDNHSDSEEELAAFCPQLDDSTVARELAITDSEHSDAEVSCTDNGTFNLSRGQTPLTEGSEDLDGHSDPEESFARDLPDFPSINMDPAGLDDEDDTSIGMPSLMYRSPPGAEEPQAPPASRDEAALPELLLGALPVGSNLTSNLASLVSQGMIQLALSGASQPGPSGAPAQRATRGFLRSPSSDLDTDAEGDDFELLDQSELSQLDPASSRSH
UniProt Q9UKV5: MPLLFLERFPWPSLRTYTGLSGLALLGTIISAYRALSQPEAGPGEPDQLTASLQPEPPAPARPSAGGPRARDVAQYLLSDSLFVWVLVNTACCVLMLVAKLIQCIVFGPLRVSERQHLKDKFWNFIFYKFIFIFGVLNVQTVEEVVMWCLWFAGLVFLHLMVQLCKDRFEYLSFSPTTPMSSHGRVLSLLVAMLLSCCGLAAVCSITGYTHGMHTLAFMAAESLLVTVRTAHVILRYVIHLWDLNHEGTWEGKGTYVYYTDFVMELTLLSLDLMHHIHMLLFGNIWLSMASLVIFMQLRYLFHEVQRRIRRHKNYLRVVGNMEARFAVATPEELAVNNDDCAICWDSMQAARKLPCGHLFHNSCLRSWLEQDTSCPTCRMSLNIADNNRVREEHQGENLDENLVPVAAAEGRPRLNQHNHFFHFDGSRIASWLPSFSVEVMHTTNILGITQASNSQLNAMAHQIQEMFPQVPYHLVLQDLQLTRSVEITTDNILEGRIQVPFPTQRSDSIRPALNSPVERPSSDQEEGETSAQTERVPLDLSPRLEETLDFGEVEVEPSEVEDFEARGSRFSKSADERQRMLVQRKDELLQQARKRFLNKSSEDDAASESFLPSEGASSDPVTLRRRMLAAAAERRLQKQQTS

Legend:
[1] = target: Flag FAM134B (wild type of the 8KR experiment) (UniProt Q9H6L5); assay: high-molecular-weight (oligomeric, SDS-resistant) species on immunoblot; Flag FAM134B-IP from lysate of cells expressing FAM134B WT or 8KR, SDS–PAGE, immunoblot; n = 1 experiment
[2] = target: FAM134B 8KR (Flag FAM134B-IP) (UniProt Q9H6L5); assay: as above
[3] = target: V1–FAM134B and V2–FAM134B (WT) (UniProt Q9H6L5); assay: split reporter; bimolecular fluorescence complementation of Venus fragments V1 and V2, confocal microscopy of fixed cells
HA–FAM134B WT = HA–FAM134B WT (UniProt Q9H6L5); assay: cross-linking; isolated membranes of cells expressing HA-FAM134B WT or 17KR treated with 0.3 mM EGS, SDS-PAGE, western blot; n = 1 experiment
[4] = target: V1–FAM134C WT and V2–FAM134C WT (UniProt Q86VR2); assay: split reporter; BiCAP: V1- and V2-tagged proteins expressed alone or together in HEK 293T; refolded Venus captured on GFP-Trap, western blot; n = 1 experiment
[5] = target: V1–FAM134B and V2–FAM134B (WT) (UniProt Q9H6L5); assay: as above

## Flag FAM134B (wild type of the 8KR experiment) (from UniProt Q9H6L5 1-497)
[1]
  binding: binds

## FAM134B 8KR (Flag FAM134B-IP) (from UniProt Q9H6L5 1-497)
[2]
  binding: binds

## AMFR–V2 WT (from UniProt Q9UKV5 1-643) (enzyme)
[3]
  binding: binds

## HA–FAM134B WT (from UniProt Q9H6L5 1-497)
HA–FAM134B WT
  binding: binds

## V1–FAM134C WT and V2–FAM134C WT (from UniProt Q86VR2 1-466)
[4]
  binding: binds

## V1–FAM134B and V2–FAM134B (WT) (from UniProt Q9H6L5 1-497)
[3]
  binding: binds
[5]
  binding: binds
